Measurements reported in PubChem BioAssay AID1259425 (University of Nebraska Medical Center, 2018).

Purpose: 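Compare each knockdown with KSR1 silencing using changes in marker transcripts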 (primary screen)
Cells: HCT116 human colon cancer cells
Knock-down reagent: siRNA pool against human genes, 50 nM siRNA
Detection: 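mRNA of six signature genes measured together by branched-DNA assay after 50 nM siRNA pool, blank removed, divided by geometric mean of two housekeeping genes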
Direction: BNIP3L mRNA: higher = more BNIP3L transcript after knockdown; NDRG1 mRNA: higher = more NDRG1 transcript after knockdown; BNIP3 mRNA: higher = more BNIP3 transcript after knockdown; ALDOC mRNA: higher = more ALDOC transcript after knockdown; ACSL5 mRNA: higher = more ACSL5 transcript after knockdown
In all, the deposit lists about 14,000 reagents; this is a part drawn at random. Reagent sequences are not shown. Not stated in the record: the time to read-out.

The first 3 records, ahead of the listing:
| gene | BNIP3L mRNA, set 1 | NDRG1 mRNA, set 1 | BNIP3 mRNA, set 1 | ALDOC mRNA, set 1 | ACSL5 mRNA, set 1 |
| --- | --- | --- | --- | --- | --- |
| MLXIPL (MLX interacting protein like) | 0.182 | 0.132 | 0.137 | 0.000762 | 0.126 |
| MRPL11 (mitochondrial ribosomal protein L11) | 0.0489 | 0.208 | 0.275 | 0.00778 | 0.133 |
| N4BP2L1 (NEDD4 binding protein 2 like 1) | 0.104 | 0.148 | 0.286 | 0.0123 | 0.156 |

Results, from the first entry:
| gene | BNIP3L mRNA, set 1 | NDRG1 mRNA, set 1 | BNIP3 mRNA, set 1 | ALDOC mRNA, set 1 | ACSL5 mRNA, set 1 |
| --- | --- | --- | --- | --- | --- |
| MLXIPL (MLX interacting protein like) | 0.182 | 0.132 | 0.137 | 0.000762 | 0.126 |
| MRPL11 (mitochondrial ribosomal protein L11) | 0.0489 | 0.208 | 0.275 | 0.00778 | 0.133 |
| N4BP2L1 (NEDD4 binding protein 2 like 1) | 0.104 | 0.148 | 0.286 | 0.0123 | 0.156 |
| SOX30 (SRY-box transcription factor 30) | 0.143 | 0.29 | 0.324 | 0.0302 | 0.143 |
| ALDH1A3 (aldehyde dehydrogenase 1 family member A3) | 0.0946 | 0.223 | 0.373 | 0.021 | 0.31 |
| NTPCR (nucleoside-triphosphatase, cancer-related) | 0.175 | 0.255 | 0.26 | 0.113 | 0.547 |
| HNRNPM (heterogeneous nuclear ribonucleoprotein M) | 0.0664 | 0.126 | 0.384 | 0.0343 | 0.114 |
| ESR1 (estrogen receptor 1) | 0.144 | 0.205 | 0.414 | 0.0445 | 0.209 |
| VKORC1 (vitamin K epoxide reductase complex subunit 1) | 0.101 | 0.138 | 0.331 | 0.0197 | 0.225 |
| DLK2 (delta like non-canonical Notch ligand 2) | 0.181 | 0.821 | 0.499 | 0.0999 | 0.442 |
| PDAP1 (PDGFA associated protein 1) | 0.118 | 0.212 | 0.554 | 0.0271 | 0.198 |
| GAL3ST1 (galactose-3-O-sulfotransferase 1) | 0.202 | 0.231 | 0.627 | 0.0217 | 0.098 |
| GLRX3 (glutaredoxin 3) | 0.0599 | 0.129 | 0.405 | 0.0549 | 0.116 |
| NCOA2 (nuclear receptor coactivator 2) | 0.0485 | 0.136 | 0.238 | 0.0183 | 0.129 |
| ARX (aristaless related homeobox) | 0.0889 | 0.107 | 0.174 | 0.00923 | 0.142 |
| RPL32 (ribosomal protein L32) | 0.135 | 0.156 | 0.267 | 0.0159 | 0.0923 |
| GABPA (GA binding protein transcription factor subunit alpha) | 0.0772 | 0.0945 | 0.227 | 0.0037 | 0.429 |
| PINK1 (PTEN induced kinase 1) | 0.109 | 0.0962 | 0.245 | 0.00643 | 0.351 |
| HLF (HLF transcription factor, PAR bZIP family member) | 0.143 | 0.278 | 0.336 | 0.0483 | 0.158 |
| BBS7 (Bardet-Biedl syndrome 7) | 0.22 | 0.414 | 0.357 | 0.0745 | 0.0788 |
| ITPR2 (inositol 1,4,5-trisphosphate receptor type 2) | 0.114 | 0.0991 | 0.299 | 0.0261 | 0.108 |
| COL5A3 (collagen type V alpha 3 chain) | 0.0684 | 0.462 | 0.34 | 0.0335 | 0.182 |
| ACO1 (aconitase 1) | 0.131 | 0.609 | 0.518 | 0.0476 | 0.308 |
| PSMG2 (proteasome assembly chaperone 2) | 0.136 | 0.0746 | 0.478 | 0.0372 | 0.176 |
| CDK20 (cyclin dependent kinase 20) | 0.0817 | 0.0956 | 0.349 | 0.00612 | 0.195 |
| RAB11FIP1 (RAB11 family interacting protein 1) | 0.0839 | 0.0659 | 0.238 | 0.0137 | 0.0973 |
| ESYT1 (extended synaptotagmin 1) | 0.158 | 0.8 | 0.311 | 0.041 | 0.179 |
| GTPBP1 (GTP binding protein 1) | 0.0393 | 0.0647 | 0.194 | 0.0146 | 0.168 |
| CDKN2C (cyclin dependent kinase inhibitor 2C) | 0.0774 | 0.117 | 0.195 | 0.00892 | 0.255 |
| CGGBP1 (CGG triplet repeat binding protein 1) | 0.224 | -0.0201 | 0.439 | 0.0209 | 0.429 |
| CERCAM (cerebral endothelial cell adhesion molecule) | 0.0991 | 0.122 | 0.25 | 0.0141 | 0.129 |
| TSPEAR (thrombospondin type laminin G domain and EAR repeats) | 2.09 | 4 | 3.15 | 0.349 | 0.189 |
| ABLIM3 (actin binding LIM protein family member 3) | 0.187 | 0.192 | 0.231 | 0.0218 | 0.209 |
| CBX7 (chromobox 7) | 0.0671 | 0.116 | 0.247 | 0.013 | 0.0975 |
